39 molecules from the supplement of paper PMC7238544 can be followed below.

Where a name gives a salt, the structure may show the parent alone. ± gives the standard deviation of the averaged measurements. The list shows a part of the results. The data scatter; read single values as rough.

For the experiment, the system named is hAMSC donor 1. The experiment in a line: Hoechst total cell count ratio vs vehicle control; hAMSC are human adipose-derived mesenchymal stem cells given an EGFP-luciferase plasmid by lipofection; higher = more cells (less toxicity). As to conditions: priming compound concentration 1.7 µM.
Take `CN(CCOc1ccc(CC2SC(=O)NC2=O)cc1)c1ccccn1` (centres undefined) [Rosiglitazone maleate]: the “Hoechst total cell count ratio” value is 0.97 ± 0.11.

`C[C@](N)(Cc1ccc(O)cc1)C(=O)O` [alpha-Methyl-L-tyrosine]: the “Hoechst total cell count ratio” value amounted to 1.36 ± 0.26.

As for `COc1cc(OC)c(C(=O)CCCN2CCCC2)c(OC)c1` [Buflomedil hydrochloride], the “Hoechst total cell count ratio” value came to 1.03 ± 0.13.

Turning to `COCCOC(=O)C1=C(C)NC(C)=C(C(=O)OC(C)C)C1c1cccc([N+](=O)[O-])c1` (centres undefined) [Nimodipine], the “Hoechst total cell count ratio” value came to 1.26 ± 0.049.

On to `O=C(CCCN1CC=C(n2c(=O)[nH]c3ccccc32)CC1)c1ccc(F)cc1` [Droperidol], for which the “Hoechst total cell count ratio” value was 1.03 ± 0.024.

For the molecule `CN1[C@@H]2CC[C@H]1C[C@@H](OC(=O)c1c[nH]c3ccccc13)C2` [Tropisetron hydrochloride], the “Hoechst total cell count ratio” value turned out to be 1.07 ± 0.066.

As for `CN1[C@@H](CC(=O)c2ccccc2)CCC[C@H]1C[C@H](O)c1ccccc1` [Lobeline hydrochloride], the “Hoechst total cell count ratio” value stood at 1.24 ± 0.25.

As to `CN(C)CCCC1(c2ccc(F)cc2)OCc2cc(C#N)ccc21` (centres undefined) [Citalopram hydrobromide], the “Hoechst total cell count ratio” value was 1.27 ± 0.12.

For the molecule `CN(C)CCc1c[nH]c2ccc(Cn3cncn3)cc12` [Rizatriptan benzoate], the “Hoechst total cell count ratio” value was determined as 0.829 ± 0.15.

On to `Nc1ncn([C@@H]2O[C@H](CO)[C@@H](O)[C@H]2O)c(=O)n1` [5-Azacytidine], for which the “Hoechst total cell count ratio” value turned out to be 1.06 ± 0.07.

On to `O=C(O)CCc1nc(-c2ccccc2)c(-c2ccccc2)o1` [Oxaprozin], for which the “Hoechst total cell count ratio” value was determined as 1.29 ± 0.19.

For `CN1CC(=O)N2[C@H](c3ccc4c(c3)OCO4)c3[nH]c4ccccc4c3C[C@@H]2C1=O` [Tadalafil], the “Hoechst total cell count ratio” value worked out at 1.31 ± 0.17.

Consider `O=c1c(O[C@@H]2O[C@H](CO)[C@@H](O)[C@H](O)[C@H]2O)c(-c2ccc(O)c(O)c2)oc2cc(O)cc(O)c12` [Isoquercitrin], for which the “Hoechst total cell count ratio” value came to 1.02 ± 0.07.

As to `CN(C)[C@@H]1C(O)=C(C(N)=O)C(=O)[C@@]2(O)C(O)=C3C(=O)c4c(O)ccc(Cl)c4[C@@H](O)[C@H]3C[C@@H]12` [Demeclocycline], the “Hoechst total cell count ratio” value worked out at 1.42 ± 0.05.

As to `OCCN1CCN(CCCN2c3ccccc3Sc3ccc(C(F)(F)F)cc32)CC1` [Fluphenazine dihydrochloride], the “Hoechst total cell count ratio” value is 1.19 ± 0.037.

As for `CCN(CC)CCOc1ccc(C(=C(Cl)c2ccccc2)c2ccccc2)cc1` [Clomifene citrate], the “Hoechst total cell count ratio” value was determined as 1.2 ± 0.063.

On to `N#Cc1ccc(C(c2ccc(C#N)cc2)n2cncn2)cc1` [Letrozole], for which the “Hoechst total cell count ratio” value was 1.21 ± 0.2.

As to `COc1cc([C@@H]2c3cc4c(cc3[C@@H](O[C@@H]3O[C@@H]5CO[C@@H](C)O[C@H]5[C@H](O)[C@H]3O)[C@H]3COC(=O)[C@H]23)OCO4)cc(OC)c1O` [Etoposide], the “Hoechst total cell count ratio” value came to 1.07 ± 0.2.

For `C[C@]12C[C@H](O)[C@H]3[C@@H](CCC4=CC(=O)CC[C@@]43C)[C@@H]1CC[C@@H]2C(=O)CO` [Corticosterone], the “Hoechst total cell count ratio” value was 1.23 ± 0.15.

For `CCN1CCCC1CNC(=O)c1cc(S(=O)(=O)CC)c(N)cc1OC` (centres undefined) [Amisulpride], the “Hoechst total cell count ratio” value is 1.35 ± 0.16.

Take `CN(C)CC[C@@H](c1ccc(Br)cc1)c1ccccn1` [Dexbrompheniramine maleate]: the “Hoechst total cell count ratio” value turned out to be 1.06 ± 0.13.

Turning to `CC1=C(C/C=C(\C)CCC[C@H](C)CCC[C@H](C)CCCC(C)C)C(=O)c2ccccc2C1=O` [Phylloquinone], the “Hoechst total cell count ratio” value stood at 1.45 ± 0.11.

As to `C[C@H](CS)C(=O)N1CCC[C@H]1C(=O)O` [Captopril], the “Hoechst total cell count ratio” value was 1.35 ± 0.19.

For the molecule `c1ccc2c(CC3=NCCN3)cccc2c1` [Naphazoline hydrochloride], the “Hoechst total cell count ratio” value is 1.2 ± 0.081.

On to `C[C@H]1O[C@@H](O[C@H]2[C@@H](O)C[C@H](O[C@H]3[C@@H](O)C[C@H](O[C@H]4CC[C@@]5(C)[C@H](CC[C@@H]6[C@@H]5C[C@@H](O)[C@]5(C)[C@@H](C7=CC(=O)OC7)CC[C@]65O)C4)O[C@@H]3C)O[C@@H]2C)C[C@H](O)[C@@H]1O` [Digoxin], for which the “Hoechst total cell count ratio” value is 0.429 ± 0.037.

For `CC#C[C@]1(O)CC[C@H]2[C@@H]3CCC4=CC(=O)CCC4=C3[C@@H](c3ccc(N(C)C)cc3)C[C@@]21C`, the “Hoechst total cell count ratio” value was found to be 1.14 ± 0.15.

On to `COc1ccccc1N1CCN(CC(O)COc2cccc3ccccc23)CC1` (centres undefined) [Naftopidil], for which the “Hoechst total cell count ratio” value is 1.2 ± 0.16.

For `CN1CCN(c2nc3cc(C(F)(F)F)ccc3n3cccc23)CC1`, the “Hoechst total cell count ratio” value is 1.24 ± 0.15.

`CC(C)[C@H](N)C(=O)OCCOCn1cnc2c(=O)nc(N)[nH]c21` [Valaciclovir hydrochloride]: the “Hoechst total cell count ratio” value amounted to 1.12 ± 0.11.

With `O=c1[nH]cc(F)c(=O)[nH]1` [5-Fluorouracil], the “Hoechst total cell count ratio” value was 1.35 ± 0.075.

Take `CC1(C)S[C@@H]2[C@H](NC(=O)[C@H](N)c3ccc(O)cc3)C(=O)N2[C@H]1C(=O)O` [Amoxicillin]: the “Hoechst total cell count ratio” value turned out to be 1.46 ± 0.16.

As to `CN1CCC[C@H]1c1cccnc1` [Nicotine], the “Hoechst total cell count ratio” value is 1.3 ± 0.15.

With `CC1(C)O[C@@H]2[C@@H](CO[C@@]3(COS(N)(=O)=O)OC(C)(C)O[C@@H]23)O1` [Topiramate], the “Hoechst total cell count ratio” value turned out to be 1.2 ± 0.085.

As to `Nc1ncnc2c1ncn2[C@@H]1O[C@H](CO)C[C@@H]1O` [3'-Deoxydenosine], the “Hoechst total cell count ratio” value was 0.896 ± 0.049.

As to `O=C1c2c(O)cc(O)cc2O[C@H](c2ccc(O)c(O)c2)[C@H]1O` (racemic) [Taxifolin-(+/-)], the “Hoechst total cell count ratio” value was 1.08 ± 0.19.

For `O=C(c1ccccc1)c1ccc2n1CCC2C(=O)O` (centres undefined) [Ketorolac tromethamine], the “Hoechst total cell count ratio” value is 1.31 ± 0.17.

In the case of `CC(=O)N[C@H]1[C@H]([C@H](O)[C@H](O)CO)OC(C(=O)O)=C[C@@H]1NC(=N)N` [Zanamivir hydrate], the “Hoechst total cell count ratio” value was 1.37 ± 0.17.

`CCOc1cc(CC(=O)N[C@@H](CC(C)C)c2ccccc2N2CCCCC2)ccc1C(=O)O` [Repaglinide]: the “Hoechst total cell count ratio” value stood at 1.12 ± 0.061.

Take `CCn1cc(C(=O)O)c(=O)c2cc(F)c(N3CCN(C)CC3)cc21` [Pefloxacin mesylate]: the “Hoechst total cell count ratio” value amounted to 1.03 ± 0.11.
